The record followed here is paper PMC12824147.

Sequences of proteins named here, by UniProt entry; tags and fusion partners are left off.
UniProt P35222: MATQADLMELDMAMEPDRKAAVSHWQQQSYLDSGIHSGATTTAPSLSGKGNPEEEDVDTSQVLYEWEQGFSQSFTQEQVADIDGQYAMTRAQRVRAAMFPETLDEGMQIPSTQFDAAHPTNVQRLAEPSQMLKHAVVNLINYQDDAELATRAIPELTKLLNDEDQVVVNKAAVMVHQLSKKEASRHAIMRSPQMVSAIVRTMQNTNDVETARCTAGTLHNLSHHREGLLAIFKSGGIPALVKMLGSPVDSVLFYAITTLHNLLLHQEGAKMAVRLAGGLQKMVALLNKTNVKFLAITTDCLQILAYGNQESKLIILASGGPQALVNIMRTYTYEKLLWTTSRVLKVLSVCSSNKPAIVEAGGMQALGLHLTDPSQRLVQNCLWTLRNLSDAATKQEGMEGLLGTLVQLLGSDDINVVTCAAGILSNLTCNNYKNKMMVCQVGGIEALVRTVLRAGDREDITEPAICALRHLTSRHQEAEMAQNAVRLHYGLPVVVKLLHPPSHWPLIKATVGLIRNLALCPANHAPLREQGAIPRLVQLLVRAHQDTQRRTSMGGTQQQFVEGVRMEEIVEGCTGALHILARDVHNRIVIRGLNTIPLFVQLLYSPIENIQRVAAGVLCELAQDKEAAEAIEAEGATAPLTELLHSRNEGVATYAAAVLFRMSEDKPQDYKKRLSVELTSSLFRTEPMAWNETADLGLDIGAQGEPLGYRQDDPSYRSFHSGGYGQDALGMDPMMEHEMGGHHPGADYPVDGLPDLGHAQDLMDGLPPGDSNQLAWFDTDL

These are yes or no findings as the source states them, for the method shown. For some assays here: In cells and extracts the contact can be indirect. Some binding calls cover weakened binding; strength is not graded here.

In assay [1] the target is β-catenin (human (endogenous in colorectal CSC spheres)) (UniProt P35222). Nature of the assay: co-IP; anti-β-catenin antibody (IgG as control) on lysates of colorectal CSC spheres, protein A/G magnetic beads, 5 washes with lysis buffer, western blot; for GSK-3β and Axin2 in CSC28 with or without FAM84A overexpression. In general terms: A western blot detects proteins with antibodies after separation by electrophoresis.

For the next assay, the target named is recombinant β-catenin (UniProt P35222). Description: cross-linking; recombinant FAM84A and β-catenin mixed, 15 min at room temperature, DSS cross-linker 1.5 h at room temperature, trypsin and Glu-C digestion, LC-MS/MS, pLink 2.3.11; both purified.

B1: FAM84A (protein, UniProt Q96KN4 1-292)
chain: MGNQLDRITHLNYSELPTGDPSGIEKDELRVGVAYFFSDDEEDLDERGQPDKFGVKAPPGCTPCPESPSRHHHHLLHQLVLNETQFSAFRGQECIFSKVSGGPQGADLSVYAVTALPALCEPGDLLELLWLQPAPEPPAPAPHWAVYVGGGQIIHLHQGEIRQDSLYEAGAANVGRVVNSWYRYRPLVAELVVQNACGHLGLKSEEICWTNSESFAAWCRFGKREFKAGGEVPAGTQPPQQQYYLKVHLGENKVHTARFHSLEDLIREKRRIDASGRLRVLQELADLVDDKE
B1: the binding entry in assay [1] was “binds”.

B2: recombinant FAM84A (protein, UniProt Q96KN4 1-292)
chain: B1 chain
B2: the binding result with recombinant β-catenin is given as “binds”.
